# Measurements from PubChem BioAssay AID2685 (National Center for Advancing Translational Sciences (NCATS), 2010).
# The other results are listed elsewhere or left out. Further columns of the screen follow, without active or inactive calls. The list favours compounds with an active or inconclusive main result. Words in brackets tell the shape of the fitted curve; partial curves, single points and poor fits give uncertain potencies.
# Experiment: qHTS Assay for Lipid Storage Modulators in Drosophila S3 Cells;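 for cell number change: cells counted by Cell Tracker Red CMTPX staining in the red channel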
# Settings: BODIPY lipid droplet fluorescence, 18-24 h; for cell number change: measured here: cell count max response, cells fed with added oleic acid
# Outline: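 Drosophila S3 cells loaded with oleic acid (400 uM, as added) and compounds at several concentrations; lipid droplets imaged by 488-nm laser-scanning cytometry, 500–530 nm intensity and object ratio to cell channel. Percent activity normalized to 20 uM Triacsin C.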
# [1] = measured here: lipid fluorescence (Fed channel) AC50, cells fed with added oleic acid
# [2] = measured here: cell number channel AC50, cells fed with added oleic acid
Structure (SMILES),cell number change,AC50 [1],AC50 [2]
COc1ccc(N(C)S(=O)(=O)c2cccc(C(=O)Nc3nc(C)cs3)c2)cc1,-20.2%,"3.66 µM [falling, partial curve]",–
CC(C)C1=Nc2cccc3cccc(c23)N1,-20.1%,"3.26 µM [falling, full curve, poor fit]",–
COC(=O)c1ccc(COC(=O)CNC(=O)c2cccc(OC)c2)o1,8.65%,"4.61 µM [rising, single point]",–
C=CCn1c(SCC(=O)NC(=O)NCC(C)C)nnc1C1CCCCC1,3.59%,–,–
CCOC(=O)c1cnn(-c2ccccc2)c1NC(=O)CCl,5.89%,–,–
O=C(/C=C/Nc1ccc([N+](=O)[O-])cc1Br)c1cccc2ccccc12,1.87%,–,–
Cc1noc(C)c1COc1ccc(C(=O)OCC(=O)Nc2c(C)n(C)n(-c3ccccc3)c2=O)cc1,146%,"23.1 µM [rising, partial curve]","23.1 µM [rising, partial curve]"
Cc1cc(OC(F)F)ccc1NC(=S)NC1CCCC1,24.4%,"0.103 µM [rising, full curve, poor fit]","2.31 µM [rising, partial curve, poor fit]"
CCCCCn1c(=O)c(F)cn(Cc2ccc(OC)c([N+](=O)[O-])c2)c1=O,-23.2%,–,–
CC(=O)c1ccc(N2CCN(C(=O)CN3C(=O)NC4(CCCCC4)C3=O)CC2)c(F)c1,-12.6%,"25.9 µM [falling, partial curve, poor fit]",–
COc1ccccc1N1CCN(C(=O)CSc2nc(C)c(C)c(=O)[nH]2)CC1,-8.53%,"2.06 µM [falling, partial curve]",–
Cc1nn(Cc2ccccc2)c(C)c1NC(=O)c1ccc([N+](=O)[O-])cc1[N+](=O)[O-],0.445%,–,"0.82 µM [falling, single point]"
Cc1cc(C)nc(N2CCCC(C(=O)Nc3ccc4c(c3)OCCO4)C2)n1 (stereo not given),24.6%,"4.11 µM [rising, single point]",–
COc1ccc(/C=C\C(=O)NCc2ccc3c(c2)cc(C)n3C)cc1OC,-7.23%,"0.0058 µM [falling, full curve, poor fit]",–
O=C(Nc1cccc(F)c1)c1cc(S(=O)(=O)NCCC2=CCCCC2)ccc1F,-30.7%,–,"9.2 µM [falling, partial curve, poor fit]"
CCc1cc(=O)oc2cc3occ(C)c3cc12,–,"1.84 µM [rising, full curve]",–
COc1ccc(-n2ccnc(SCC(=O)NCc3ccc(C)cc3)c2=O)cc1Cl,50%,"5.8 µM [falling, full curve]","29.1 µM [rising, single point]"
COc1ccc(NC(=O)c2cccnc2N2CCCCC2)cc1,-30.3%,"29.1 µM [falling, single point]","20.6 µM [falling, single point]"
CCCn1c(=O)c(C(=O)NCCc2ccc(Cl)cc2)c(O)c2ccccc21,-18.8%,–,–
COc1ccc(C(O)P(=O)(OC(C)C)OC(C)C)cc1OC (stereo not given),0.281%,"0.164 µM [rising, full curve, poor fit]",–
Cc1nc2sccn2c(=O)c1S(=O)(=O)Nc1ccc(N2CCN(C)CC2)cc1,-6.34%,"0.517 µM [falling, single point]",–

Structure (SMILES),cell number change,AC50 [1],AC50 [2]
CC(=O)c1ccc(NC(=O)Nc2ccc(S(=O)(=O)N3CCCC3)cc2)cc1,–,"11.6 µM [falling, partial curve]",–
COC(=O)CS(=O)(=O)c1cccc2cccnc12,-15.6%,"4.11 µM [falling, single point]",–
Cc1cccc(C(=O)O/N=C(\N)Cc2ccc([N+](=O)[O-])cc2)c1,4.13%,"2.31 µM [rising, partial curve]",–
COc1ccc(-c2cc(-c3nnc(COC(=O)c4ccc(O)cc4)o3)c3ccccc3n2)cc1OC,29.2%,"0.651 µM [rising, full curve, poor fit]",–
COc1ccc(NC(=O)CN(C)C(=O)C(C)Oc2ccc(Br)cc2)cc1 (stereo not given),30.8%,–,"14.6 µM [rising, single point]"
CCCC(=O)Nc1nc(-c2ccc(Cl)s2)cs1,-33%,"5.17 µM [falling, single point]","2.91 µM [falling, partial curve, poor fit]"
CCC(C)C(=O)Nc1nnc(SCC(=O)NC2CCCC2)s1 (stereo not given),5.41%,"2.91 µM [falling, single point]",–
COC(=O)C1=C(N)Oc2cc(C)[nH]c(=O)c2C1c1cc(OC)c(OC)c(OC)c1 (stereo not given),19.9%,"1.84 µM [rising, partial curve, poor fit]",–
COc1cccc(CN(C)C(=O)CNC(=O)c2sc3ccccc3c2Cl)c1OC,-8.22%,"29.1 µM [rising, single point]",–
CN(C(=O)c1ccc(NC(=O)c2ccco2)cc1)c1ccccc1,–,"7.31 µM [falling, partial curve]",–
COc1ccccc1NS(=O)(=O)c1ccccc1C#N,1.55%,–,–
O=C(NC(=S)Nc1ccc(CN2CCCCC2)cc1)c1cccc(OCc2ccccc2)c1,62.8%,"0.13 µM [falling, full curve, poor fit]","0.092 µM [falling, full curve, poor fit]"
Cc1ccc2[nH]c3c(N4CCOCC4)ncnc3c2c1,-12%,–,"0.259 µM [rising, full curve, poor fit]"
Cc1cc(C)cc(N(C(=O)c2csnn2)C(C(=O)NC2CCCCC2)c2ccncc2)c1 (stereo not given),-15.4%,"0.0517 µM [rising, partial curve, poor fit]",–
CC(=O)Nc1ccc(-c2csc(NC(=O)c3ccc(C)o3)n2)cc1,-15%,"11.6 µM [falling, partial curve]",–
COc1ccc(NC(=O)COc2ccc(S(=O)(=O)N3CCOCC3)cc2C)cc1OC,-10.5%,–,–
CC(=O)N1CC(C)Oc2ccc(S(=O)(=O)NC(CC(=O)O)c3ccccc3)cc21 (stereo not given),-0.165%,"20.6 µM [rising, single point]",–
CCc1cccc(NC(=O)CCCN2C(=O)C(c3ccccc3)Oc3cccnc32)c1 (stereo not given),–,"13 µM [falling, partial curve]",–
Cc1ccc(/C(=N\O)c2oc3c(C)c4oc(=O)cc(C)c4cc3c2C)cc1,-32.6%,"32.6 µM [falling, single point]","32.6 µM [falling, single point]"
C=CCn1c(C)c(C(C)=O)c(N2CCOCC2)nc1=S,–,"4.11 µM [falling, partial curve, poor fit]",–
CCOC(=O)N1N=C(c2ccccc2)CC1(O)C(F)(F)F (stereo not given),13.8%,"16.4 µM [rising, single point]",–

Structure (SMILES),cell number change,AC50 [1],AC50 [2]
CCNC(=O)/C=C1\NC(C)(C)Cc2c1ccc1ccccc21,84.2%,–,"13 µM [rising, partial curve]"
COc1ccc(Cc2nnc(NC(=O)CS(=O)(=O)c3ccccc3)s2)cc1OC,-3.42%,"2.59 µM [rising, single point]",–
CC(C)CC(=O)Nc1ccc(N2CCN(C(=O)c3cccs3)CC2)cc1,14.5%,–,–
Cn1c(=O)c2c(nc(Br)n2CCSc2nnnn2-c2ccccc2)n(C)c1=O,86.3%,"2.06 µM [rising, partial curve]","2.06 µM [rising, full curve]"
Cn1cccc1C(C#N)(CC#N)c1cccc(F)c1C#N (stereo not given),15.8%,–,"0.326 µM [falling, single point]"
Cc1ccc(-c2cc(C(F)F)n3ncc(C(=O)Nc4c(C)nn(Cc5ccccc5Cl)c4C)c3n2)cc1,-0.832%,"16.4 µM [falling, partial curve]",–
CCOc1ccc(CN2CCCC(CO)(Cc3ccc(F)cc3)C2)cc1 (stereo not given),-9.62%,–,–
CC(C)CN1CCC(CN(C)Cc2nc(-c3cnccn3)no2)CC1,18.9%,"29.1 µM [rising, single point]",–
CCN(CC)C(=O)c1sc(NC(=O)c2ccoc2C)c(C(=O)OC)c1C,-17.3%,"1.46 µM [rising, full curve]",–
COC(=O)c1nnn(-c2ccsc2C(=O)OC)c1C(=O)OC,-26.5%,"1.03 µM [falling, full curve, poor fit]",–
CC(C)(C)NC(=O)NC(=O)CN1CCN(c2ccccc2O)CC1,-37.1%,"29.1 µM [falling, single point]","29.1 µM [falling, single point]"
COCCn1c(SC(C(=O)Nc2cc(C)ccc2OC)c2ccccc2)nnc1-c1ccc(Cl)cc1 (stereo not given),17.7%,–,"0.517 µM [rising, full curve, poor fit]"
COc1ccc(Cl)cc1-c1n[nH]c(=S)n1Cc1ccccc1,23%,"0.00411 µM [rising, full curve, poor fit]",–
O=C1[C@@H]2C(Cc3ccc(O)cc3)NC3(C(=O)Nc4ccc(F)cc43)[C@@H]2C(=O)N1c1ccccc1 (stereo not given in full),-7.46%,"4.11 µM [rising, single point]",–
C=CCNCc1ccccc1[N+](=O)[O-],15.8%,"29.1 µM [rising, single point]",–
O=C(NNC(=O)c1cc(Br)ccc1O)c1csc(N2CCOCC2)n1,-21.2%,–,–
Cc1ccc(NC(=O)c2c(F)cccc2Cl)cc1S(=O)(=O)N1CCOCC1,12.7%,–,–
O=C1CC(SCc2nc3ccccc3[nH]2)C(=O)N1c1ccc(F)cc1 (stereo not given),0.809%,"0.82 µM [rising, full curve, poor fit]",–
O=C(O)C1(c2ccccc2)CCN(S(=O)(=O)c2cccs2)CC1,-18.6%,"0.731 µM [falling, full curve, poor fit]",–

# Twelve compounds from above, arranged by molar mass, high to low.
Structure (SMILES),cell number change,AC50 [1],AC50 [2]
COCCn1c(SC(C(=O)Nc2cc(C)ccc2OC)c2ccccc2)nnc1-c1ccc(Cl)cc1 (stereo not given),17.7%,–,"0.517 µM [rising, full curve, poor fit]"
Cc1ccc(-c2cc(C(F)F)n3ncc(C(=O)Nc4c(C)nn(Cc5ccccc5Cl)c4C)c3n2)cc1,-0.832%,"16.4 µM [falling, partial curve]",–
O=C1[C@@H]2C(Cc3ccc(O)cc3)NC3(C(=O)Nc4ccc(F)cc43)[C@@H]2C(=O)N1c1ccccc1 (stereo not given in full),-7.46%,"4.11 µM [rising, single point]",–
Cc1ccc(NC(=O)c2c(F)cccc2Cl)cc1S(=O)(=O)N1CCOCC1,12.7%,–,–
CC(C)CC(=O)Nc1ccc(N2CCN(C(=O)c3cccs3)CC2)cc1,14.5%,–,–
O=C(O)C1(c2ccccc2)CCN(S(=O)(=O)c2cccs2)CC1,-18.6%,"0.731 µM [falling, full curve, poor fit]",–
CC(C)CN1CCC(CN(C)Cc2nc(-c3cnccn3)no2)CC1,18.9%,"29.1 µM [rising, single point]",–
COc1ccc(Cl)cc1-c1n[nH]c(=S)n1Cc1ccccc1,23%,"0.00411 µM [rising, full curve, poor fit]",–
COC(=O)c1nnn(-c2ccsc2C(=O)OC)c1C(=O)OC,-26.5%,"1.03 µM [falling, full curve, poor fit]",–
CCNC(=O)/C=C1\NC(C)(C)Cc2c1ccc1ccccc21,84.2%,–,"13 µM [rising, partial curve]"
Cn1cccc1C(C#N)(CC#N)c1cccc(F)c1C#N (stereo not given),15.8%,–,"0.326 µM [falling, single point]"
C=CCNCc1ccccc1[N+](=O)[O-],15.8%,"29.1 µM [rising, single point]",–
